# According to patent US8053627B2, “Methods for treating demyelination disorders” (University of Chicago, priority 2005, dated 2011):
# System: EAE demyelinating lesions
# Assay: EAE, CNS delivery of INF-γ at the recovery stage (doxycycline withdrawn at PID7)
# Format: in vivo, mice
# Description: Double transgenic mice that allow for temporally regulated delivery of INF-γ to the CNS (Lin et al., J Neurosci 24:10074-10083 (2004)) were used to assess the role of INF-γ in the pathogenesis of EAE. GFAP/tTA; TRE/IFN-γ double transgenic mice, as described in Example 1 were used to determine the effect of INF-γ on the demyelination caused by EAE. All mice were fed doxycycline from the day of conception to repress the expression of INF-γ, and were immunized with myelin oligodendrocyte protein (MOG35-55) to induce EAE. AT day 7 postimmunization (PID7), doxycycline was withdrawn from the experimental group (PID7 DOX−).
# The level of INF-γ was determined in the control (DOX+) and the PID7 DOX− mice using an ELISA immunoassay as described in Example 1, and the severity of the disease was assessed as a function of a clinical score. Clinical severity scores were recorded daily according to a 0-5 point scale, where 0=healthy, 1=flaccid tail, 2=ataxia and/or paresis of hind limbs, 3=paralysis of hind limbs and/or paresis of forelimbs, 4=tetraparalysis, and 5=moribund or dead.
# The spinal cord from DOX+ and DOX− animals with EAE was immunostained for MBP, and the remyelination of axons was evaluated. The number of oligodendrocytes was determined in the spine from DOX+ and DOX− mice as the number of CC1 positive cells. […]
substance,measurement,setting,value
IFN-γ: pleotropic cytokine secreted by activated T lymphocytes and natural killer cells; delivered to the CNS by transgene or added as recombinant protein,level of INF-γ (ELISA),"DOX− mice, PID50",40.24 pg/mg
same,level of INF-γ (ELISA),"both DOX+ and DOX− mice, peak of disease PID17",60 pg/mg
